Results from US9029593B2, “Method for manufacturing spilanthol and intermediate manufacturing product therefor” (Takasago International Corporation, priority 2009, dated 2015).
“Also recorded” adds a separate entry of the source.

Experiment: Sensory evaluation of aqueous solutions containing 10 ppm of N-isobutyl-2,6,8-decatrienamide
Type: in vivo
Details: aqueous solution containing 10 ppm
Description: The sensory evaluation was performed using aqueous solutions respectively containing 10 ppm of N-isobutyl-2,6,8-decatrienamide obtained in Example 2 and Comparative Example 1.

Q: Which Odor does the source give for `CC=CC=CCC/C=C/C(=O)NCC(C)C` (racemic) [Example 2, N-isobutyl-2,6,8-decatrienamide] here?
A: hardly had an unusual odor; also recorded: little odor
